Values quoted from earlier work in patent US20250248986A1, “ANTIFUNGAL DRUG INHALATION FORMULATIONS” (priority 2024, published 2025).
For at least one compound, name, drawing or mass did not settle the structure.

Key:
[1] = tested on: Candida species; settings: against 96% of the Candida species
[2] = tested on: Aspergillus species; settings: against 94% of the Aspergillus species

## CCC(C)n1ncn(-c2ccc(N3CCN(c4ccc(OCC5COC(Cn6cncn6)(c6ccc(Cl)cc6Cl)O5)cc4)CC3)cc2)c1=O (racemic) [Itraconazole]
[1]
  minimum inhibitory concentration (MIC): ≤ 1 µg/mL
[2]
  MIC: ≤ 1 µg/mL
